Source: paper doi:10.1101/2021.10.05.463166
These are yes or no findings as the source states them, for the method shown. Binding seen in cells or lysates may run through a third protein. Some results given as binding are weak or reduced against the parent protein; the word gives no strength.

By UniProt entry, the sequences of proteins in these tests, tags left out.
UniProt O15392: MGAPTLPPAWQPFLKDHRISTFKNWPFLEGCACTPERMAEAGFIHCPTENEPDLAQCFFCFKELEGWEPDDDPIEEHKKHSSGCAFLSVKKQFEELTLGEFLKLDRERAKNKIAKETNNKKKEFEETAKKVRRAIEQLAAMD
UniProt P84022: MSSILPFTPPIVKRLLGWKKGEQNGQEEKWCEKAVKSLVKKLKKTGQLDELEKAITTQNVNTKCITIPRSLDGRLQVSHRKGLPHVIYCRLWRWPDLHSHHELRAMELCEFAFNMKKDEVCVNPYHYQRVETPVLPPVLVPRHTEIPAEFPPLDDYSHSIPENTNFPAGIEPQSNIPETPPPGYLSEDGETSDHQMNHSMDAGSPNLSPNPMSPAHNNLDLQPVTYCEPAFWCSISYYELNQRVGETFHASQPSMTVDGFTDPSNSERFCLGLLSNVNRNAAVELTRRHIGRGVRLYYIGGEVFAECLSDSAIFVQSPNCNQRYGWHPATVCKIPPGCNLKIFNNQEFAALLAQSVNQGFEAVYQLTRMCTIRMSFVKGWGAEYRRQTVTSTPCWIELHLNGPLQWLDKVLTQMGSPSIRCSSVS
UniProt P05412: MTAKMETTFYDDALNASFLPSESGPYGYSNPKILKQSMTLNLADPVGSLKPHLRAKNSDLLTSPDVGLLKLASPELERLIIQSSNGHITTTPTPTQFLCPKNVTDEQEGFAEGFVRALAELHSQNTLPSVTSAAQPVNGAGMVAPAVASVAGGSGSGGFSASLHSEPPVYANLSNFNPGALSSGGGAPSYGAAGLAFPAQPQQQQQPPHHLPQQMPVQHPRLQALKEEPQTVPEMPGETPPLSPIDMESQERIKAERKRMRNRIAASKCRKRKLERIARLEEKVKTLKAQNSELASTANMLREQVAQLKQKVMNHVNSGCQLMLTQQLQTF

B1: IRF1 (protein, UniProt P10914 1-325)
chain: MPITRMRMRPWLEMQINSNQIPGLIWINKEEMIFQIPWKHAAKHGWDINKDACLFRSWAIHTGRYKAGEKEPDPKTWKANFRCAMNSLPDIEEVKDQSRNKGSSAVRVYRMLPPLTKNQRKERKSKSSRDAKSKAKRKSCGDSSPDTFSDGLSSSTLPDDHSSYTVPGYMQDLEVEQALTPALSPCAVSSTLPDWHIPVEVVPDSTSDLYNFQVSPMPSTSEATTDEDEEGKLPEDIMKLLEQSEWQPTNVDGKGYLLNEPGVQPTSVYGDFSCKEEPEIDSPGGDIGLSLQRVFTDLKNMDATWLDSLLTPVRLPSIQAIPCAP
B2: IRF8 (protein, UniProt Q02556 1-426)
chain: MCDRNGGRRLRQWLIEQIDSSMYPGLIWENEEKSMFRIPWKHAGKQDYNQEVDASIFKAWAVFKGKFKEGDKAEPATWKTRLRCALNKSPDFEEVTDRSQLDISEPYKVYRIVPEEEQKCKLGVATAGCVNEVTEMECGRSEIDELIKEPSVDDYMGMIKRSPSPPEACRSQLLPDWWAQQPSTGVPLVTGYTTYDAHHSAFSQMVISFYYGGKLVGQATTTCPEGCRLSLSQPGLPGTKLYGPEGLELVRFPPADAIPSERQRQVTRKLFGHLERGVLLHSSRQGVFVKRLCQGRVFCSGNAVVCKGRPNKLERDEVVQVFDTSQFFRELQQFYNSQGRLPDGRVVLCFGEEFPDMAPLRSKLILVQIEQLYVRQLAEEAGKSCGAGSVMQAPEEPPPDQVFRMFPDICASHQRSFFRENQQITV
B3: JUND (protein, UniProt P17535 1-347)
chain: METPFYGDEALSGLGGGASGSGGSFASPGRLFPGAPPTAAAGSMMKKDALTLSLSEQVAAALKPAAAPPPTPLRADGAPSAAPPDGLLASPDLGLLKLASPELERLIIQSNGLVTTTPTSSQFLYPKVAASEEQEFAEGFVKALEDLHKQNQLGAGAAAAAAAAAAGGPSGTATGSAPPGELAPAAAAPEAPVYANLSSYAGGAGGAGGAATVAFAAEPVPFPPPPPPGALGPPRLAALKDEPQTVPDVPSFGESPPLSPIDMDTQERIKAERKRLRNRIAASKCRKRKLERISRLEEKVKTLKSQNTELASTASLLREQVAQLKQKVLSHVNSGCQLLPQHQVPAY

The molecules below were run against survivin (human (endogenous in THP-1)) (UniProt O15392) (assay: co-IP).

| Molecule | binding |
| --- | --- |
| SMAD3 (from UniProt P84022 1-425) | binds |
| JUN (from UniProt P05412 1-331) | no binding |
| B1 | binds |
| B2 | no binding |
| B3 | no binding |
